Screening data, single-dose tests

Measurements from “University of Dundee, Small-Polar-MMV Screening Library” (2021), ChEMBL document CHEMBL3988442.

Mtb cholesterol medium: 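Phenotypic screen: M. tuberculosis growth, cholesterol and DPPC medium, 4 days; the read-out is not stated. Compounds at 50 µM. Direction is inferred from retests: higher values go with more growth inhibition. Size under these conditions: about 69,000 compounds, about 370 of them at 50% or above in at least one test.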
Mtb glucose medium: 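Growth of Mycobacterium tuberculosis over 3 days (7H9 medium with glucose and tyloxapol); the read-out is not stated. Tested at 50 µM. Higher reads as more growth inhibition (inferred: compounds with an IC50 in retests scored well above the rest). Of about 69,000 compounds tested this way, about 760 (1.1%) reached 50% or more in at least one test.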

Results are given as percent effect.
The controls that fix the scale are not given in the record; negative values are as filed.
This is an unselected part of the compounds tested.
Two or more numbers in one place are separate tests of the same structure; such repeats can differ widely.

structure	Mtb cholesterol medium	Mtb glucose medium
CC(NC(=O)NCCCn1cccn1)c1ccc2c(c1)NC(=O)CO2 (stereo not given)	10.23%	14.73%
NC1C=C(C(F)(F)F)NC=C1c1ccccc1 (stereo not given)	1.194%	11.3%
COc1cccc(S(=O)(=O)NC(=O)CCC2CCCC2)c1	-11.39%	-23.05%
Cc1noc(C)c1CNc1c(N2CCCC2)cccc1N1CCCC1	3.893% & 14.85%	31.58%
CC(O)CCN(C)S(=O)(=O)Cc1ccc(Cl)c(Cl)c1 (stereo not given)	0.6483%	9.99% & 34.95%
Cc1cc(NCc2ccc(S(N)(=O)=O)cc2)nc(C)n1	-16.68%	-13.39% & -1.798%
CCn1c(C)nnc1SCCNc1nc(C)ncc1S(C)(=O)=O	-12.57%	-34.95% & -3.887%
O=C(NC[C@H]1OC[C@@H](NC2CCOCC2)[C@@H]1O)c1cccs1	3.744%	3.639% & -20.4%
CC(NC(=O)CCc1ccsc1)c1ccc2c(c1)NC(=O)CO2 (stereo not given)	-4.422%	0.386%
CCc1nc(CN2CCOC(CN(CC)c3cccnn3)C2)cs1 (stereo not given)	9.833%	10.69%
Cc1csc(C(C)(C)NCCNS(C)(=O)=O)n1	-6.612%	-36.9%
COCCN(C)S(=O)(=O)c1cc(C)cc(F)c1	1.808%	16.09% & 1.599%
COCCn1cc(C(=O)N2CCCC2c2cnn(C)c2)ccc1=O (stereo not given)	-8.547% & -7.153%	-11.87%
CCOCCCNC(=O)Cc1cccc(F)c1	-19.95%	-31.32%
CCC1C(=O)NCCN1c1nccc(C)n1 (stereo not given)	1.919%	-27.08%
O=C(NCC(O)COc1cccc(F)c1)c1ccoc1 (stereo not given)	0.745%	18.85%
COc1cccc(-c2cccc(-c3ccn(CC4COCCO4)n3)c2)n1 (stereo not given)	17.38%	18.88%
CC(C)(NCC(=O)NCC1CC1)c1ccc2c(c1)OCCO2	-8.203%	-3.648% & -12.89%
Cc1ccc(NC2CCN(C(=O)Cc3csc(C)n3)CC2)nn1	-8.088%	-3.847%
O=C(O)C(F)(F)F.[H][C@@]12C[C@@H](C)O[C@]1([H])CN(S(=O)(=O)c1c(C)nn(C)c1C)C2	-12.75%	-11.45%
N#Cc1c(Cl)nsc1NCc1ccnc(OCC(F)(F)F)c1	20.56%	9.37%
CCCN1CCC(N2CCN(c3cc(C)nc(COC)n3)CC2)CC1	2.312%	-20.79%
CN(CCC1CCOCC1)C(=O)C1CCC(=O)N(Cc2ccccn2)C1 (stereo not given)	-12.03%	-10.16% & -16.54%
CN(C(=O)COCc1ccccc1)C1CCN(CC2CCOC2)CC1 (stereo not given)	16.37%	24.66%
Fc1cc(Oc2ccc(C(F)(F)F)cn2)cc(F)c1CN1CCCC1	2.741%	7.435%
CC(C)n1nnnc1-c1ccc(NC(=O)C(C)(C)C#N)cc1F	19.42%	0.6272% & 30.53%
CC(NC(=O)C1(NC(=O)c2ccc3[nH]ncc3c2)CCCC1)C1CC1 (stereo not given)	-11.27%	-5.566%
[H][C@]12CC[C@@H](N(C)c3ccc(C)nn3)[C@@]1([H])CN(C(=O)Cc1cccs1)C2	-3.362%	0.03224%
O=S(=O)(Cc1ccc(F)cc1)NCCc1nnc2n1CCC2	-2.772%	8.733%
Cc1nccc(C(=O)N2CCCC2c2c(C)nn(C)c2C)n1 (stereo not given)	-42.07%	-4.354%
CNC(=O)C1CN(Cc2c[nH]cn2)CCN(C2CCOCC2)C1 (stereo not given)	0.386%	7.175%
CN(C)C(=O)Cn1cc(C(=O)NCCc2ccc(C(F)(F)F)cc2)nn1	-12.16%	-22.74%
CNC(=O)c1cc2c(nc1NCC1CC1)CCNCC2	-34.18%	-39.22% & -7.816%
COCCC(Cc1cccc(Br)c1)C(=O)NCC(N)=O (stereo not given)	3.993%	-7.607% & -5.469%
O=C(c1cnn2c(-c3ccco3)ccnc12)N1CCCCCC1	10.41%	33.38%
Cc1cc(-c2cnc(N3CCCCCC3)nc2-c2cccnc2C)on1	5.982%	34.42%
CC(C)N(CCO)C(=O)C1CCC(=O)N(CCc2ccc(Cl)cc2)C1 (stereo not given)	20.86% & 4.251%	25.91%
CCn1ccnc1CN1CCCN(C(=O)c2ccc(C#N)cc2)CC1	3.779%	-31%
CC(NC(=O)CSCC#N)c1ccccc1 (stereo not given)	-6.783%	15.61%
Cc1ccc(N2CC3(COCCN(Cc4cnn(C)c4)C3)OCC2=O)s1.O=C(O)C(F)(F)F (stereo not given)	-7.807% & -10.17%	-8.78% & -50.52%
COc1ccc(-c2cc(C(=O)Nc3nc[nH]n3)[nH]n2)cc1	6.024%	13.73%
COC(=O)c1cnc2c(c(C)nn2C)c1OC	-3.438%	3.774%
Cc1ccc(CNC2CCc3[nH]c(=O)ccc3C2)cc1C.O=C(O)C(F)(F)F (stereo not given)	-3.674%	7.269%
[H][C@@]12CS(=O)(=O)C[C@]1([H])N(C(=O)c1ccc3nc(C)oc3c1)CCN2CCO	0.2538%	-3.657% & 12.83%
Cc1n[nH]c(C)c1CCNC(=O)C1CCCN(Cc2ccco2)C1 (stereo not given)	51.32%	17.23%
COCCOc1ncccc1CNCc1c(C)nn(C)c1N(C)C	-3.831%	9.243%
CS(=O)(=O)NC1CC(=O)N(c2ccccc2Cl)C1 (stereo not given)	5.685%	-2.505% & -3.624%
O=C(O)C(F)(F)F.[H][C@@]12CN(c3nnc(C)s3)C[C@@H](C(=O)NCC3CC3)[C@]1([H])CCO2	-19.82% & -19.67%	0.8494% & -9.359%
CN(Cc1nc(-c2cccs2)no1)Cc1nc2c(s1)CCCC2	12.35%	13.85%
Cc1ccc(S(N)(=O)=O)cc1C(=O)N1C[C@@H](CN(C)C)[C@@H](CO)C1	3.249%	-7.326%
O=C(O)C(F)(F)F.O=C(O)C(F)(F)F.O=C(O)C(F)(F)F.[H][C@@]12CN(Cc3ccccn3)C[C@]1([H])OCCN2c1ncccn1	16.7%	23.83%
CN(Cc1nc2c(cnn2C)c(=O)[nH]1)Cc1ccco1	-14.11%	5.979%
CCCc1cc(C(=O)N(C)Cc2cnc3ccccc3n2)n(C)n1	-17.2%	-26.32%

6 of the entries, repeated:

structure	Mtb cholesterol medium	Mtb glucose medium
Cc1nccc(C(=O)N2CCCC2c2c(C)nn(C)c2C)n1 (stereo not given)	-42.07%	-4.354%
Cc1ccc(NC2CCN(C(=O)Cc3csc(C)n3)CC2)nn1	-8.088%	-3.847%
COCCN(C)S(=O)(=O)c1cc(C)cc(F)c1	1.808%	16.09% & 1.599%
O=C(O)C(F)(F)F.[H][C@@]12CN(c3nnc(C)s3)C[C@@H](C(=O)NCC3CC3)[C@]1([H])CCO2	-19.82% & -19.67%	0.8494% & -9.359%
CN(Cc1nc2c(cnn2C)c(=O)[nH]1)Cc1ccco1	-14.11%	5.979%
CC(O)CCN(C)S(=O)(=O)Cc1ccc(Cl)c(Cl)c1 (stereo not given)	0.6483%	9.99% & 34.95%